# From article PMC3522678
# Results are given in words; binding and its absence hold for the method and conditions named. Binding seen in cells or lysates may run through a third protein. Binding calls can cover weak binding; strength is not graded here.
# Target: T1, Protein kinase D2 (human (endogenous in Jurkat)) (UniProt Q9BZL6)
# T1 sequence: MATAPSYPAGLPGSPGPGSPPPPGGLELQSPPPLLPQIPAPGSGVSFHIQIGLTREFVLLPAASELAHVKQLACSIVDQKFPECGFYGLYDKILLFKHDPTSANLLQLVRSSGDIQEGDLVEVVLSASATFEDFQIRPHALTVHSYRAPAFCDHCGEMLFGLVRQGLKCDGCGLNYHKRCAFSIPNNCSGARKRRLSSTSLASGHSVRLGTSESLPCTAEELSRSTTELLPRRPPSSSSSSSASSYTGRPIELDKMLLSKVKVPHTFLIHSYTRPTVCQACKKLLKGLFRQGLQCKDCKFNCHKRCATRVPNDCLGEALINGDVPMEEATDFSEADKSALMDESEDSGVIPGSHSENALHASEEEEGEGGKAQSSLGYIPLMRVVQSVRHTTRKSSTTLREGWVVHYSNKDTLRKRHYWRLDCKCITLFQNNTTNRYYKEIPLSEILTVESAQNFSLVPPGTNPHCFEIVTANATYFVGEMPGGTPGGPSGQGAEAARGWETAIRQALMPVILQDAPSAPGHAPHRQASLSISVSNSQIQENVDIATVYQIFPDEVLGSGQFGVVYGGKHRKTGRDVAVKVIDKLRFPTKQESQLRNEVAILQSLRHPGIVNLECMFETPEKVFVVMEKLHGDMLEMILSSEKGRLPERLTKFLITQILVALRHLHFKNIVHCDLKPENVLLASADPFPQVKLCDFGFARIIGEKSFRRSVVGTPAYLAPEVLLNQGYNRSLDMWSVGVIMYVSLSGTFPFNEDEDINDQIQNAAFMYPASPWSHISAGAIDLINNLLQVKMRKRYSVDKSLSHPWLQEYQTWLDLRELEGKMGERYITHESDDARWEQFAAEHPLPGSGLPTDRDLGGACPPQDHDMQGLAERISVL
# Test: co-IP; Jurkat cells or GFP-SET-WT expressing Jurkat cells (1×10^7) stimulated with PMA (20 ng/ml) and ionomycin (2 µg/ml) for 30 min at 37°C and lysed; lysate immunoprecipitated with anti-PKD2 or anti-GFP antibody and Protein A beads
substance,measurement,value
SET protein (from UniProt Q01105-2),binding,binds
